Experiment [1] deals with sgs1-SIM1-2Δ (Sgs1-3HA) (yeast (S. cerevisiae)) (UniProt P35187). Put plainly: co-IP; Sgs1-3HA precipitated from extracts of cells treated with 0.033% MMS for 2 h; Rpa1 found by Western blot. Background: In western blotting, separated proteins are transferred to a membrane and probed.
Experiment [2] deals with T1, Smc5-9myc (yeast (S. cerevisiae)) (UniProt Q08204).
T1 sequence (chain, part of the protein carries SUMO (Smt3) in MMS-treated cells; sites not given): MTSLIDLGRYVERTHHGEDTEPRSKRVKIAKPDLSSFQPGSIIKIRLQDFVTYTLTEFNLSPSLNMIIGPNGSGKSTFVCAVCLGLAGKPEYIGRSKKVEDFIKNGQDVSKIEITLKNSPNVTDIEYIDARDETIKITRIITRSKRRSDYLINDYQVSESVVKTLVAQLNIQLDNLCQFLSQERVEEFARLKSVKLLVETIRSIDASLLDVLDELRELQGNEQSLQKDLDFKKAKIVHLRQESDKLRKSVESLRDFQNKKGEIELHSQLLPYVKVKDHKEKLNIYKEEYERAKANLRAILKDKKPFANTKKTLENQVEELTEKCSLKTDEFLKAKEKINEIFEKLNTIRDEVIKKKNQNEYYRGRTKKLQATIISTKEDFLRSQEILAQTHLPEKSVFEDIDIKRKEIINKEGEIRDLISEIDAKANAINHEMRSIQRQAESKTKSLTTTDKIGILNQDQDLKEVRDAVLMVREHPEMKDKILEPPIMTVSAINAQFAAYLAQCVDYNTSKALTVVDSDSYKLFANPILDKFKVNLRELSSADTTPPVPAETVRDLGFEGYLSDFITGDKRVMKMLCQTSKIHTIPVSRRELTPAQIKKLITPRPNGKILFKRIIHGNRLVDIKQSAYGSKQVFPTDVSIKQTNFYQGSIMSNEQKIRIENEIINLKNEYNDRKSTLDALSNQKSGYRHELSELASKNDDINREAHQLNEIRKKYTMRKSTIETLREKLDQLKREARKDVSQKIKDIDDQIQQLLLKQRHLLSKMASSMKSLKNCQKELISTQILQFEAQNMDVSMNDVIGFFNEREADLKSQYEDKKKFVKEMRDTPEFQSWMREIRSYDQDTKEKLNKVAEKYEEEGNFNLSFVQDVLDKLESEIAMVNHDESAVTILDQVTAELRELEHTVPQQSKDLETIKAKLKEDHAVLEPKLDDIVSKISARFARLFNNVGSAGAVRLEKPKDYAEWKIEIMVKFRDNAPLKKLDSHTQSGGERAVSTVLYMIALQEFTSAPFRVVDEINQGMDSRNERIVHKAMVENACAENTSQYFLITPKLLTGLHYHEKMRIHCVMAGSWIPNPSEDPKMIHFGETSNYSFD
Put plainly: co-IP; myc-tagged bait precipitated with anti-Myc 9E10 on protein G Dynabeads, 2 h at 4°C, from yeast extracts in 50 mM HEPES, 150 mM KCl, 1.5 mM MgCl2, 0.5 mM DTT, 0.5% Triton X-100, pH 7.5; HA-tagged prey found by Western blot; cells treated with 0.033% MMS for 2 h; extracts also treated with DNase I (Fig. 3B); STR pairs also tested in mms21ΔC cells (Fig. 3G,H).

Amino acid sequences for entries named in this document (tags omitted). A change or cut given only in a name is not applied to a line headed by its entry.
UniProt P35187: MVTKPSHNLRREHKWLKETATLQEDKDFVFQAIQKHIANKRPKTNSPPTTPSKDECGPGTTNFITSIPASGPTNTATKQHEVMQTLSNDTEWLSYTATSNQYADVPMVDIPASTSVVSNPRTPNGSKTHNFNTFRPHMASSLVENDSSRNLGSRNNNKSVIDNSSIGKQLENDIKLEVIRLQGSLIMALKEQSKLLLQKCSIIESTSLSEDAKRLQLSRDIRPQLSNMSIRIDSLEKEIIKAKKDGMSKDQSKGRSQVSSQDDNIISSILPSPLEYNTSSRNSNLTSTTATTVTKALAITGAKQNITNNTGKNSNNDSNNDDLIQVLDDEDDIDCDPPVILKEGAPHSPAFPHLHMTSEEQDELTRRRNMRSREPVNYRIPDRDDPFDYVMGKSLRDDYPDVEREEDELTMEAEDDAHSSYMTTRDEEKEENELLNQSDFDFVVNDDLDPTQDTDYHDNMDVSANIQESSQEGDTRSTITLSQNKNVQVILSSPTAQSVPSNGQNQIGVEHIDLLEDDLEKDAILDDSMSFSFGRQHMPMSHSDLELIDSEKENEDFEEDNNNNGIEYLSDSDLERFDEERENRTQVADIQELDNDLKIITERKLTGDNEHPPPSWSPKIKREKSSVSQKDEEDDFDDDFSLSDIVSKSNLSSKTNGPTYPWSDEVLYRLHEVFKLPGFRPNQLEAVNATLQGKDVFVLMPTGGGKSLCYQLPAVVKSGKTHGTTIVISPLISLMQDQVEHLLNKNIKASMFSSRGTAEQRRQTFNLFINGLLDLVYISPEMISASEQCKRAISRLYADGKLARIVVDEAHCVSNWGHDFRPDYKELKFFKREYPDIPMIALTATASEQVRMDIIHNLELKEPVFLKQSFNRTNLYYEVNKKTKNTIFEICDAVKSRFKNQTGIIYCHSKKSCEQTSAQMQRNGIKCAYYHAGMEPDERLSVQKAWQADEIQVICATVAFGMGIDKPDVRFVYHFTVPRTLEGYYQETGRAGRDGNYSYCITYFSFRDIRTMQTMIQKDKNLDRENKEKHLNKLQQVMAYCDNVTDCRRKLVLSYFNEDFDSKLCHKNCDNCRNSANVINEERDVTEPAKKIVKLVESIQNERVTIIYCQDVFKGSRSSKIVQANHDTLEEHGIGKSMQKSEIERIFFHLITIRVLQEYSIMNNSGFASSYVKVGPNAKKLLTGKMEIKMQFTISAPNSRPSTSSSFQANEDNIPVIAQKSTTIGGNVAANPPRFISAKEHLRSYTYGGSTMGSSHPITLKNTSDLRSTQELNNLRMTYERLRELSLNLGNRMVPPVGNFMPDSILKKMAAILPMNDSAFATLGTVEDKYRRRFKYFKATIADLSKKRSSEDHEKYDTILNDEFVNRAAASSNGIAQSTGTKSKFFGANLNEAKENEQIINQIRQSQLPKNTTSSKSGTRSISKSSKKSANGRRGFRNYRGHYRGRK
UniProt P22336: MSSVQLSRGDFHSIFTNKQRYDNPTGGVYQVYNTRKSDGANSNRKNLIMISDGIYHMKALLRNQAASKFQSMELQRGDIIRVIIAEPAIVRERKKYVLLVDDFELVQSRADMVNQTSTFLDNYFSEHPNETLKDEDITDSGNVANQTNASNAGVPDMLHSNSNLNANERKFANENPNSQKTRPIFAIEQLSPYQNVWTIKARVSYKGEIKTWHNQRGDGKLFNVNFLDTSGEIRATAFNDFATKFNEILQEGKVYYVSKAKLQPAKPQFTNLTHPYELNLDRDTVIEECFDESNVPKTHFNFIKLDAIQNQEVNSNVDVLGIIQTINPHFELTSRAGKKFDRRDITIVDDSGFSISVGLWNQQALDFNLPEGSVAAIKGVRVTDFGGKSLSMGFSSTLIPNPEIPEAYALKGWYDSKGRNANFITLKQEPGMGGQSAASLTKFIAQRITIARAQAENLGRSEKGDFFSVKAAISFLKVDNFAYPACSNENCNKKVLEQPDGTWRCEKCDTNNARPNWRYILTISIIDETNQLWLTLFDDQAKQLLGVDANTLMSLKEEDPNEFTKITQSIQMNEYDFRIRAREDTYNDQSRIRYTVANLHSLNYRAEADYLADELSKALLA

Experiment [3] concerns the target T2, Top3-9myc (yeast (S. cerevisiae)) (UniProt P13099).
T2 sequence: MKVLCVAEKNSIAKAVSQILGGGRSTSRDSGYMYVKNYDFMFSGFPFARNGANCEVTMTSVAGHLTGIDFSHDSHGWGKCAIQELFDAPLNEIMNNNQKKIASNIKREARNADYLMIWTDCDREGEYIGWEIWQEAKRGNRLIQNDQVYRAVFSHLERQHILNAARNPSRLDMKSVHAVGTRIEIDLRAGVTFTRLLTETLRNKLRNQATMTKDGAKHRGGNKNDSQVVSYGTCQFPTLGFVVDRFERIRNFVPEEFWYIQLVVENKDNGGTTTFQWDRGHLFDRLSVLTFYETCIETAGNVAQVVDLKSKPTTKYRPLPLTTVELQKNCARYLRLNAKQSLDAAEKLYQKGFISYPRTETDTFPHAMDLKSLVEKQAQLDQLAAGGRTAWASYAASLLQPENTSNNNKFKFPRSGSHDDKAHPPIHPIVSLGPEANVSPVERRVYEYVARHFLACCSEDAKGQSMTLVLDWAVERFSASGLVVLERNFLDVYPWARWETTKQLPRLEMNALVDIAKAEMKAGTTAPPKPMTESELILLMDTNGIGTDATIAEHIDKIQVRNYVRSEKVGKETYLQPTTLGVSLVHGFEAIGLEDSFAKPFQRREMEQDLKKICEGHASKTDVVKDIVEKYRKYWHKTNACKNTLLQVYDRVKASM
Described as above.

No constants are given. Whether binding was seen depends on the method and setting. Binding seen in cells or lysates may run through a third protein. Binding calls can cover weak binding; strength is not graded here. For some of these results: Where a sequence is shown, tags or fusion partners need not be part of it.

With Rpa1 (from UniProt P22336 1-621), the binding result in experiment [1] was “binds”.

In the case of “sgs1-SIM1-2Δ (Sgs1-3HA) (from UniProt P35187)”, the binding result in experiment [2] was “no binding”; in experiment [3], “binds”.

For the substance “sgs1-SIM1Δ (Sgs1-3HA) (from UniProt P35187)”, in experiment [2], the binding result is reported as “binds”.

The values above are taken from paper PMC4911932.
